Values quoted from earlier work, collected in patent US10322136B2, “Composition for inhibiting growth or proliferation of chronic myelogenous leukemia cancer stem cells, and screening method therefor” (HIROSHIMA UNIVERSITY, priority 2015, dated 2019).
For at least one compound, name, drawing or mass did not settle the structure.

Test system: CML-affected mice
Conditions: rapamycin treatment, reported; cited from earlier work

CO[C@H]1C[C@@H]2CC[C@@H](C)[C@@](O)(O2)C(=O)C(=O)N2CCCC[C@H]2C(=O)O[C@H]([C@H](C)C[C@@H]2CC[C@@H](O)[C@H](OC)C2)CC(=O)[C@H](C)/C=C(\C)[C@@H](O)[C@@H](OC)C(=O)[C@H](C)C[C@H](C)/C=C/C=C/C=C/1C [rapamycin]
survival of CML-affected mice: does not prolong
